Results reported in paper PMC9146371.
No constants are given. Whether binding was seen depends on the method and setting. Binding seen in cells or lysates may run through a third protein. Some results given as binding are weak or reduced against the parent protein; the word gives no strength. Tags and fused reporters may be left off the sequences shown.

Molecular target: T1, GFP-PRPF6 (UniProt O94906)
T1 sequence: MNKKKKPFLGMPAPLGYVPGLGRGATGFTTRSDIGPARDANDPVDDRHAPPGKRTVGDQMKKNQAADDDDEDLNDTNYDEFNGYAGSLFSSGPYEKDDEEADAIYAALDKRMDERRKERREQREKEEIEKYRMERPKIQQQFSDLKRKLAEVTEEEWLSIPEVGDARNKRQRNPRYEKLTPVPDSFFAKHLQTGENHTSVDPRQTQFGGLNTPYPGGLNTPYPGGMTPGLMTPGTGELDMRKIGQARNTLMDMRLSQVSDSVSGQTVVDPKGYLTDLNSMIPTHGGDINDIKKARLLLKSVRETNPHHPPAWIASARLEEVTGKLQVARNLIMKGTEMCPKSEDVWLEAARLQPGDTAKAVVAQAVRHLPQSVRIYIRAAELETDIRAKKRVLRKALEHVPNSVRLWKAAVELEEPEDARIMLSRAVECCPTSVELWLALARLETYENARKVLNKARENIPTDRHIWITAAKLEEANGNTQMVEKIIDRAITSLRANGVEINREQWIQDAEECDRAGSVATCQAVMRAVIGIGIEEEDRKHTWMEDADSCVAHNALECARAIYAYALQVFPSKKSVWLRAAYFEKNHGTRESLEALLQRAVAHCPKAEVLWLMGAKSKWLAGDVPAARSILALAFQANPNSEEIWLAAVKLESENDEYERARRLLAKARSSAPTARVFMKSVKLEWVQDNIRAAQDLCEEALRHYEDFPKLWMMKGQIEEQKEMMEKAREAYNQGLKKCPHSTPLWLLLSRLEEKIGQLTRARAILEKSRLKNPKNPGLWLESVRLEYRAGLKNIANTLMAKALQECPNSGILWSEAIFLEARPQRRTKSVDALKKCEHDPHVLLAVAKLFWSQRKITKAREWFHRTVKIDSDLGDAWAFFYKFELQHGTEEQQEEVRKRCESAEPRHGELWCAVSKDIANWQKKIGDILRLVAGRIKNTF
Assay: co-IP; GFP-Trap agarose beads (nanobody); lysates of HEK293T cells co-transfected with GFP-tagged and HA-tagged proteins, 2 h at 4 °C; SDS-PAGE and Western blot

binding: binds
B1: HA-N-VLGR1_CTF (3xHA-tagged VLGR1_CTF) (domain or fragment, UniProt Q8WXG9-1 5891-6306)
chain: SVYAVYARTDNLSSYNEAFFTSGFICISGLCLAVLSHIFCARYSMFAAKLLTHMMAASLGTQILFLASAYASPQLAEESCSAMAAVTHYLYLCQFSWMLIQSVNFWYVLVMNDEHTERRYLLFFLLSWGLPAFVVILLIVILKGIYHQSMSQIYGLIHGDLCFIPNVYAALFTAALVPLTCLVVVFVVFIHAYQVKPQWKAYDDVFRGRTNAAEIPLILYLFALISVTWLWGGLHMAYRHFWMLVLFVIFNSLQGLYVFMVYFILHNQMCCPMKASYTVEMNGHPGPSTAFFTPGSGMPPAGGEISKSTQNLIGAMEEVPPDWERASFQQGSQASPDLKPSPQNGATFPSSGGYGQGSLIADEESQEFDDLIFALKTGAGLSVSDNESGQGSQEGGTLTDSQIVELRRIPIADTHL
